Measured values reported in article PMC9186391.
Results are given in words; binding and its absence hold for the method and conditions named. In cells and extracts the contact can be indirect. Here binding means that the protein was enriched with, or labelled near, the bait; the list need not be complete. Tags and fused reporters may be left off the sequences shown.

Protein sequences, listed by entry. Tags and fused reporters are not part of them.
UniProt Q13838: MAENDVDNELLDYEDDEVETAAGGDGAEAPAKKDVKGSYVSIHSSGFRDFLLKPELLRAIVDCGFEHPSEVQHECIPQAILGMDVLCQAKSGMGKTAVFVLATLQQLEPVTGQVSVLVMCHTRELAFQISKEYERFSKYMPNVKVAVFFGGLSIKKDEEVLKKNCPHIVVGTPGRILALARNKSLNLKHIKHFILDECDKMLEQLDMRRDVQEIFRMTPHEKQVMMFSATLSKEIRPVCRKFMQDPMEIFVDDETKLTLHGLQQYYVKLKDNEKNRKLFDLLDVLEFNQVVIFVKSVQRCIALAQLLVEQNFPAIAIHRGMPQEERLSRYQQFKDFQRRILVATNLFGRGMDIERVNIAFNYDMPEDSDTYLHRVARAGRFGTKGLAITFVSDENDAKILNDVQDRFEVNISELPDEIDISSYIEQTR

B1: THOC6 (protein, UniProt Q86W42 1-341)
chain: MERAVPLAVPLGQTEVFQALQRLHMTIFSQSVSPCGKFLAAGNNYGQIAIFSLSSALSSEAKEESKKPVVTFQAHDGPVYSMVSTDRHLLSAGDGEVKAWLWAEMLKKGCKELWRRQPPYRTSLEVPEINALLLVPKENSLILAGGDCQLHTMDLETGTFTRVLRGHTDYIHCLALRERSPEVLSGGEDGAVRLWDLRTAKEVQTIEVYKHEECSRPHNGRWIGCLATDSDWMVCGGGPALTLWHLRSSTPTTIFPIRAPQKHVTFYQDLILSAGQGRCVNQWQLSGELKAQVPGSSPGLLSLSLNQQPAAPECKVLTAAGNSCRVDVFTNLGYRAFSLSF

Molecular target: T1, FLAG-HA-tagged RBM33 (UniProt Q96EV2)
T1 sequence: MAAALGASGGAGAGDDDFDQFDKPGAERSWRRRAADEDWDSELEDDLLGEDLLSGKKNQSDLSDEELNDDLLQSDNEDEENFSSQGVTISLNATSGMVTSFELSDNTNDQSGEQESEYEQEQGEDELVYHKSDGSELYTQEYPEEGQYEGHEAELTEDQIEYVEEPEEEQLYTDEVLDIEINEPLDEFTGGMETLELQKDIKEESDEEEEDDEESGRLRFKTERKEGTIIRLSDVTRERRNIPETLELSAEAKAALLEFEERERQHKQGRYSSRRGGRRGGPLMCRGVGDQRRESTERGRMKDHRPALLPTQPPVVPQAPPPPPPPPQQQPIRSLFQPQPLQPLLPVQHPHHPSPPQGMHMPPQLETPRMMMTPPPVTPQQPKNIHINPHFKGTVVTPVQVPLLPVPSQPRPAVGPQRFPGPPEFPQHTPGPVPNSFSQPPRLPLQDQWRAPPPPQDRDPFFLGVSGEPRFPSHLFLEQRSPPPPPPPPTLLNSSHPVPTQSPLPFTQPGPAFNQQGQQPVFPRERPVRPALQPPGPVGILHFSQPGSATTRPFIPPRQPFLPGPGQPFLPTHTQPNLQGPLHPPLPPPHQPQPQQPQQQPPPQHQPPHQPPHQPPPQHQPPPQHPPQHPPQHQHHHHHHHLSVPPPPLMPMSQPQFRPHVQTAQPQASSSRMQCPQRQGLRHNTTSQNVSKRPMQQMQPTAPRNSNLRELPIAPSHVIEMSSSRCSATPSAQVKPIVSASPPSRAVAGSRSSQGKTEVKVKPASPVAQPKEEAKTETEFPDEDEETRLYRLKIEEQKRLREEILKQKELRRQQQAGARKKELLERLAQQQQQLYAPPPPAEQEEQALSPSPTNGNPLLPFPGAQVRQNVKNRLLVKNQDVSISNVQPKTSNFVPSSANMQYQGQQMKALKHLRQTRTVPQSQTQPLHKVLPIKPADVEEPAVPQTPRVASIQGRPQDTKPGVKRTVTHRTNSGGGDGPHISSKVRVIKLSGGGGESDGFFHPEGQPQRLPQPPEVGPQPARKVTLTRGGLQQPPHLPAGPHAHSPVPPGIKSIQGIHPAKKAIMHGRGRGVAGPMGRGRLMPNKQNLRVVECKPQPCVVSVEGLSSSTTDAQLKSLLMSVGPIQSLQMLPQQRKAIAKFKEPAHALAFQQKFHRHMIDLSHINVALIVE
Assay: affinity purification with mass spectrometry; FLAG M2 antibody on Dynabeads Protein G; lysates of HCT116 cells stably expressing FH-RBM33 or empty vector, with 20 µg/mL RNase A, 2 h at 4°C; 50 mM Tris-HCl pH 7.5, 150 mM NaCl, 1% NP-40, 0.1% sodium deoxycholate; eluted with 3× FLAG peptide; LC-MS/MS, triplicate

binding	Molecule
binds	UAP56 (from UniProt Q13838 1-428)
binds	B1
